{"source": "PubChem BioAssay AID328", "about": "(DTP/NCI, 2004)", "test_system": "BDF1 mice, P388 leukemia ip, median survival T/C", "assay": "NCI In Vivo Anticancer Drug Screen. Data for tumor model P388 Leukemia (intraperitoneal) in B6D2F1 (BDF1) mice", "conditions": "T/C endpoint: median survival time, higher T/C = longer survival", "in_short": "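Antitumour effect was judged in vivo: survival in drug-treated mice, normalised to that of vehicle-dosed controls, gives the reported T/C.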", "key": {"[1]": {"conditions": "dose: 100.0 mg/kg/injection, schedule: Q01DX009 (ip), vehicle: Klucel (hydroxypropylcellulose) (HPC)"}, "[2]": {"conditions": "dose: 25.0 mg/kg/injection, schedule: Q01DX009 (ip), vehicle: saline with Tween-80"}, "[3]": {"conditions": "dose: 200.0 mg/kg/injection, schedule: Q01DX009 (ip), vehicle: saline with Tween-80"}, "[4]": {"conditions": "dose: 400.0 mg/kg/injection, schedule: Q01DX009 (ip), vehicle: saline with Tween-80"}, "[5]": {"conditions": "dose: 200.0 mg/kg/injection, schedule: Q04DX003 (ip), vehicle: Klucel (hydroxypropylcellulose) (HPC)"}, "[6]": {"conditions": "dose: 400.0 mg/kg/injection, schedule: Q04DX003 (ip), vehicle: Klucel (hydroxypropylcellulose) (HPC)"}, "[7]": {"conditions": "dose: 100.0 mg/kg/injection, schedule: Q01DX009 (ip), vehicle: saline with Tween-80"}, "[8]": {"conditions": "dose: 50.0 mg/kg/injection, schedule: Q01DX009 (ip), vehicle: saline with Tween-80"}}, "note": "The list is a part of this screen's results and no random one: it gathers tests that were run many times, whatever their T/C, doses with no T/C, and many T/C values between a quarter and a half above the control. Further doses and runs are listed elsewhere. T/C: endpoint of the treated group in % of that of the vehicle group. Some doses have a count of surviving animals in place of a T/C: the source files T/C as zero there, which appears to mark a toxic dose or a test without result, not a measured value. Some doses without a T/C left all or most animals alive at the check, yet need not have been tolerated: survival well below the control is almost never listed, so the zero probably covers shortened survival too. Survivors were counted at the toxicity check, usually on the fifth day, unless a day is given; later deaths do not show. Schedule codes are those of the source, read here as Q, the interval in days (D) or hours (H), X, the number of doses. Additions like (4×) say how often a value occurs here. Where survival is the endpoint, the PubChem record calls one and a half times the control and up active, and a quarter to a half above the control has no call in these data; cut-offs in other NCI protocols can differ. Some T/C values carry the count of animals alive at the toxicity check (mostly the fifth day); where none is given, no animal had died by that day."}
{"compound": "CCN(CC)Cc1c(C)[nH]c2ccc(N(C)C)cc2c1=O", "values": [{"measurement": "survivor count", "setting": "dose: 0.78 mg/kg/injection, schedule: Q01DX009 (ip), vehicle: water", "result": "6 of 6"}, {"measurement": "T/C", "setting": "dose: 6.25 mg/kg/injection, schedule: Q01DX009 (ip), vehicle: water", "result": "129 % of control"}, {"measurement": "survivor count", "setting": "dose: 12.5 mg/kg/injection, schedule: Q01DX009 (ip), vehicle: water", "result": "6 of 6"}, {"measurement": "survivor count", "setting": "dose: 25.0 mg/kg/injection, schedule: Q01DX009 (ip), vehicle: water", "result": "6 of 6"}, {"measurement": "survivor count", "setting": "[1]", "result": "6 of 6"}, {"measurement": "survivor count", "setting": "dose: 200.0 mg/kg/injection, schedule: Q04DX003 (ip), vehicle: saline", "result": "5 of 6"}, {"measurement": "survivor count", "setting": "dose: 400.0 mg/kg/injection, schedule: Q04DX003 (ip), vehicle: saline", "result": "2 of 6"}]}
{"compound": "CCCC(O)C(C)(C)[N+](=O)[O-]", "note": "(stereo not drawn)", "values": [{"measurement": "survivor count", "setting": "[2]", "result": "4 of 6"}]}
{"compound": "CCC[CH2][Sn-]([CH2]CCC)([CH2]CCC)[O]c1cc(Cl)c(Cl)cc1Cl", "values": [{"measurement": "survivor count", "setting": "dose: 12.5 mg/kg/injection, schedule: Q01DX009 (ip), vehicle: other", "result": "0 of 6"}, {"measurement": "survivor count", "setting": "dose: 25.0 mg/kg/injection, schedule: Q01DX009 (ip), vehicle: other", "result": "0 of 6"}, {"measurement": "survivor count", "setting": "dose: 50.0 mg/kg/injection, schedule: Q01DX009 (ip), vehicle: other", "result": "0 of 6"}, {"measurement": "survivor count", "setting": "dose: 100.0 mg/kg/injection, schedule: Q01DX009 (ip), vehicle: other", "result": "0 of 6"}, {"measurement": "survivor count", "setting": "dose: 200.0 mg/kg/injection, schedule: Q01DX009 (ip), vehicle: other", "result": "0 of 6"}, {"measurement": "survivor count", "setting": "dose: 400.0 mg/kg/injection, schedule: Q01DX009 (ip), vehicle: other", "result": "0 of 6"}]}
{"compound": "COC(=O)C1C(O)C(C)C(O)C(C)/C=C\\C=C(C)C(=O)Nc2c(C)c(OC(C)=O)c3c(c2O)C(=O)C(C)=C2OCOC(=C23)C(C)=CC(C)(O)C(O)C(C)C1O", "note": "(stereo not drawn)", "values": [{"measurement": "survivor count", "setting": "[1]", "result": "3 of 6"}, {"measurement": "T/C", "setting": "dose: 150.0 mg/kg/injection, schedule: Q01DX009 (ip), vehicle: Klucel (hydroxypropylcellulose) (HPC)", "result": "126 % of control"}, {"measurement": "survivor count", "setting": "dose: 300.0 mg/kg/injection, schedule: Q01DX009 (ip), vehicle: Klucel (hydroxypropylcellulose) (HPC)", "result": "2 of 6"}]}
{"compound": "CC(NCCCSc1ccccc1)C(O)c1ccc(O)cc1", "note": "(stereo not drawn)", "values": [{"measurement": "T/C", "setting": "[3]", "result": "125 % of control [5 of 6 alive]"}, {"measurement": "survivor count", "setting": "[3]", "result": "0 of 6 (2×)"}, {"measurement": "survivor count", "setting": "[4]", "result": "0 of 6 (2×)"}]}
{"compound": "C=C1CCC2C1C1C(C(C)C)CCC21C", "note": "(stereo not drawn)", "values": [{"measurement": "survivor count", "setting": "[3]", "result": "6 of 6"}]}
{"compound": "O=C(O)CNC(=O)CNC(=O)C(Br)Cc1ccccc1", "note": "(stereo not drawn)", "values": [{"measurement": "survivor count", "setting": "[5]", "result": "6 of 6"}, {"measurement": "survivor count", "setting": "[6]", "result": "6 of 6"}]}
{"compound": "CC(=O)Nc1cccc(Cl)c1C", "values": [{"measurement": "T/C", "setting": "[2]", "result": "145 % of control"}, {"measurement": "T/C", "setting": "[7]", "result": "136 % of control"}]}
{"compound": "COC(=O)C(N)CCCCNc1ccc2c(cc1=O)C(NC(C)=O)CCc1cc(OC)c(OC)c(OC)c1-2", "note": "(stereo not drawn)", "values": [{"measurement": "T/C", "setting": "[2]", "result": "143 % of control"}, {"measurement": "T/C", "setting": "[8]", "result": "133 % of control"}, {"measurement": "T/C", "setting": "dose: 59.0 mg/kg/injection, schedule: Q01DX009 (ip), vehicle: saline with Tween-80", "result": "132 % of control"}, {"measurement": "T/C", "setting": "dose: 88.0 mg/kg/injection, schedule: Q01DX009 (ip), vehicle: saline with Tween-80", "result": "141 % of control"}, {"measurement": "T/C", "setting": "[7]", "result": "133 % of control"}, {"measurement": "T/C", "setting": "dose: 132.0 mg/kg/injection, schedule: Q01DX009 (ip), vehicle: saline with Tween-80", "result": "135 % of control"}, {"measurement": "T/C", "setting": "[3]", "result": "136 % of control"}, {"measurement": "survivor count", "setting": "[4]", "result": "4 of 6"}]}
{"compound": "Cc1c(C)c(CC#N)c(C)c(C)c1CC#N", "values": [{"measurement": "survivor count", "setting": "[1]", "result": "6 of 6"}, {"measurement": "survivor count", "setting": "[5]", "result": "6 of 6"}, {"measurement": "survivor count", "setting": "dose: 400.0 mg/kg/injection, schedule: Q01DX009 (ip), vehicle: Klucel (hydroxypropylcellulose) (HPC)", "result": "6 of 6"}, {"measurement": "survivor count", "setting": "[6]", "result": "6 of 6"}]}
{"compound": "CC1CCCC[N-]1.CC1CCCC[N-]1.[Cl][Pt+2][Cl]", "note": "(stereo not drawn)", "values": [{"measurement": "survivor count", "setting": "dose: 200.0 mg/kg/injection, schedule: Q01DX009 (ip), vehicle: Klucel (hydroxypropylcellulose) (HPC)", "result": "6 of 6"}]}
{"compound": "O=c1oc2ccccc2cc1-c1csc(/C=N/N2CCOCC2)n1", "values": [{"measurement": "survivor count", "setting": "[3]", "result": "5 of 6"}]}
{"compound": "Oc1c(Cl)c(Cl)c(Cl)c(Cl)c1Cl", "note": "(tested in a mixture with another compound)", "values": [{"measurement": "T/C", "setting": "[8]", "result": "127 % of control"}, {"measurement": "survivor count", "setting": "[7]", "result": "4 of 6"}]}
{"compound": "CCNC(=NC)c1ccc(NC(=O)c2ccc(C(=O)Nc3ccc(C(=NC)NCC)cc3)cc2)cc1", "values": [{"measurement": "T/C", "setting": "dose: 2.7 mg/kg/injection, schedule: Q01DX009 (ip), vehicle: saline with Tween-80", "result": "140 % of control"}]}
{"compound": "Cc1cc2nc3n(c2cc1C)C(C)(C)N=C(N)N3", "values": [{"measurement": "survivor count", "setting": "[3]", "result": "1 of 6"}]}
